Experimental data published in patent US5866397A, “Human protein tyrosine phosphatase OB protein” (Merck & Co., Inc., priority 1997, dated 1999).

System: osteoblasts and bone marrow cells
Settings: ALN 10^-5 M, orthovanadate 10^-5 M, PAO 2×10^-7 M

Compound: NCCCC(O)(P(=O)(O)O)P(=O)(O)O [alendronate]
- toxicity for osteoblasts or bone marrow cells: no apparent toxicity
